# Patent US10975123B2, “Mutant Akt-specific capture agents, compositions, and methods of using and making” (California Institute of Technology, priority 2014, dated 2021)
# Chains of the proteins cited; added tags and fusions are not shown. Residues count along the entry.
# UniProt P31749, 1-124 E17K: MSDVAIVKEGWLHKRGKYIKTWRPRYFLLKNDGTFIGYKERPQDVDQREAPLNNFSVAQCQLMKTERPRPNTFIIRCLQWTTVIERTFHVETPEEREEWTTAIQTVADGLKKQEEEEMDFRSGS
# At least one structure is not confirmed: it was looked up by name or label, or the drawing left a doubt. Where a SMILES comes first, the peptide text is derived from it. [ ]: non-standard residue; d: D form.
# Tests used:
# [1] = target: T1, WT 33-mer epitope (PH Domain fragment of Akt1) (Homo sapiens, UniProt P31749, H13K); assay: Fluorescence polarization binding to WT epitope; conditions: read-out: KD for the WT epitope; yleaf peptide 4, fluorescence polarization in solution, triplicate
# T1 construct: made in house; host or cells: chemical synthesis (Fmoc SPPS)
# T1 sequence (P31749 1-33 H13K limits assumed): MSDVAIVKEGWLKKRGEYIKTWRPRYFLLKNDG
# full length Akt1 (WT) = full length Akt1 (WT) (Homo sapiens, UniProt P31749); assay: Fluorescence polarization binding to full-length WT Akt1; conditions: read-out: KD for full length WT Akt1; yleaf peptide 4, fluorescence polarization; saturation not reached
# [2] = target: T2, E17K GST-PH Domain (E17K Akt1) (Homo sapiens, UniProt P31749, E17K); assay: Full curve ELISA, immobilized ligand, E17K protein; conditions: read-out: EC50 for the E17K Akt1 from ELISA binding curves; ligand immobilized at 1 μM on streptavidin plate; Hill fit with common saturation and slope
# T2 construct: The first 124 N-terminal amino acids from full length Akt1 were used as the PH Domain DNA; GST (N); thrombin cleavage site (C); 6His (C); made in house; host or cells: E. coli BL21-DE3-pLys
# Method: The full curve ELISAs were obtained using streptavidin coated ELISA plates (Pierce). The ligands—anchor, biligand, triligand and “eflya” scrambled anchor peptide blank—were laid down at a concentration of 1 μM for one hour. Two lanes of each ligand were used on the plate for both proteins—WT and E17K GST-PH Domain. The plates were blocked with 5% BSA for two hours. Dilutions of both WT and E17K GST-PH Domain proteins were made in 0.5% BSA in 1×TBS starting from 1 μM-0.5 nM by serially diluting 1:2 down a series of 8 samples. For each ligand, a no protein blank was also used. The proteins were incubated with the blocked plate for one hour, washed 3× with 1×TBST+0.5% BSA and tapped dry, then detected with a 1:10,000 dilution of an HRP conjugated anti-GST pAb. The plate was again washed 3× with 1×TBST and tapped dry. It was developed with a 1:1 solution of TMB substrate and development was stopped with 1M H2SO4 and read on a plate reader.
smiles,measurement,setting,value
CC(C)C[C@@H](NC(=O)[C@H](N)Cc1ccc(O)cc1)C(=O)N[C@H](CCC(=O)O)C(=O)N[C@H](C)C(=O)N[C@H](Cc1ccccc1)C(N)=O [yleaf] (H-[dY][dL][dE][dA][dF]-NH2; N-terminus assumed),Kd,[1],2800 ± 840 nM
same,Kd,full length Akt1 (WT),> 1000 nM
same,EC50,[2],61 nM
